Data taken from article PMC10316081.
Results are given in words; binding and its absence hold for the method and conditions named. In cells and extracts the contact can be indirect. Some results given as binding are weak or reduced against the parent protein; the word gives no strength.

Chains of the proteins cited; added tags and fusions are not shown. Lines headed by an entry give the natural chain unless they say otherwise; changes in a name come on top.
UniProt O75140: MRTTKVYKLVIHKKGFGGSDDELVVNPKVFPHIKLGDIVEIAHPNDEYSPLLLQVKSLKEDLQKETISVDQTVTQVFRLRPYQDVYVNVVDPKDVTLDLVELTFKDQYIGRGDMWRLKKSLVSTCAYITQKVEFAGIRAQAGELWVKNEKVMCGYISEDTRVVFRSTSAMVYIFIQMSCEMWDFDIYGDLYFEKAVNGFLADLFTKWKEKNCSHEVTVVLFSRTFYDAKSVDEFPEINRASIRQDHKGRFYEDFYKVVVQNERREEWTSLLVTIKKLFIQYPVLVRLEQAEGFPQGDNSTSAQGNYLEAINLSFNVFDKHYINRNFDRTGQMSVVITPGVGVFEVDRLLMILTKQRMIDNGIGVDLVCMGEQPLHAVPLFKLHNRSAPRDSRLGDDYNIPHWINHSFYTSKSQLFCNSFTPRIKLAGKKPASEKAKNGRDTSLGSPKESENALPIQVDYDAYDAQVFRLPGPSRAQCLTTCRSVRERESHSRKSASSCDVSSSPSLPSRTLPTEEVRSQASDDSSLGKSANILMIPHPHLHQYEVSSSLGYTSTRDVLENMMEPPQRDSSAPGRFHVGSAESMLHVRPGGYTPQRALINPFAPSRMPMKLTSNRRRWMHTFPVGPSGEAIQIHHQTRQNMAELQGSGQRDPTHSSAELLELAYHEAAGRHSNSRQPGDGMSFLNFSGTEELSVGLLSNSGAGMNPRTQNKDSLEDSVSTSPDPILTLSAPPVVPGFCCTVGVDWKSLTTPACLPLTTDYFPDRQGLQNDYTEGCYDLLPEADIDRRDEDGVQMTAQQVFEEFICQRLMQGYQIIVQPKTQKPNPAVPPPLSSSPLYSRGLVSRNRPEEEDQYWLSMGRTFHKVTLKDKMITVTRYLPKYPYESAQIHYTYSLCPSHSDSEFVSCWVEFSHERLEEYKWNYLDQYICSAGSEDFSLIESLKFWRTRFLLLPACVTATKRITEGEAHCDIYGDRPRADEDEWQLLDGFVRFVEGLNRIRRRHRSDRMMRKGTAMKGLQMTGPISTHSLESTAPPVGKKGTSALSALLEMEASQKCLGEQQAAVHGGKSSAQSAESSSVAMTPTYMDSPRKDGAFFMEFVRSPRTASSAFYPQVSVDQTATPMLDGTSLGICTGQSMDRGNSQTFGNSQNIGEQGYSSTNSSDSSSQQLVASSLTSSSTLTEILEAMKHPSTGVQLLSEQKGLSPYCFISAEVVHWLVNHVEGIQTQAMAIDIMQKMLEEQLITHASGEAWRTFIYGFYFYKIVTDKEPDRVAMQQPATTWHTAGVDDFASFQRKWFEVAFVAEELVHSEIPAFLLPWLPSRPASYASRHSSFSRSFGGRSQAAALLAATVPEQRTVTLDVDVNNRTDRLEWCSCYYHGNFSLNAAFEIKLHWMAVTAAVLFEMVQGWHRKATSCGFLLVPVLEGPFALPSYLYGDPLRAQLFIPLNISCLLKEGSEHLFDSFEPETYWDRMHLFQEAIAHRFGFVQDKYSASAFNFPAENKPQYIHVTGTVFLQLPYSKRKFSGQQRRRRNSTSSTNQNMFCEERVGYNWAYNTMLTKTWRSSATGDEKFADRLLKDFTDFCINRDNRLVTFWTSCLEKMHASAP

B1: Nprl3 (endogenous) (protein, UniProt Q12980 1-569)
chain: MRDNTSPISVILVSSGSRGNKLLFRYPFQRSQEHPASQTSKPRSRYAASNTGDHADEQDGDSRFSDVILATILATKSEMCGQKFELKIDNVRFVGHPTLLQHALGQISKTDPSPKREAPTMILFNVVFALRANADPSVINCLHNLSRRIATVLQHEERRCQYLTREAKLILALQDEVSAMADGNEGPQSPFHHILPKCKLARDLKEAYDSLCTSGVVRLHINSWLEVSFCLPHKIHYAASSLIPPEAIERSLKAIRPYHALLLLSDEKSLLGELPIDCSPALVRVIKTTSAVKNLQQLAQDADLALLQVFQLAAHLVYWGKAIIIYPLCENNVYMLSPNASVCLYSPLAEQFSHQFPSHDLPSVLAKFSLPVSLSEFRNPLAPAVQETQLIQMVVWMLQRRLLIQLHTYVCLMASPSEEEPRPREDDVPFTARVGGRSLSTPNALSFGSPTSSDDMTLTSPSMDNSSAELLPSGDSPLNQRMTENLLASLSEHERAAILSVPAAQNPEDLRMFARLLHYFRGRHHLEEIMYNENTRRSQLLMLFDKFRSVLVVTTHEDPVIAVFQALLP
B2: Nprl2 (endogenous) (protein, UniProt Q8WTW4 1-380)
chain: MGSGCRIECIFFSEFHPTLGPKITYQVPEDFISRELFDTVQVYIITKPELQNKLITVTAMEKKLIGCPVCIEHKKYSRNALLFNLGFVCDAQAKTCALEPIVKKLAGYLTTLELESSFVSMEESKQKLVPIMTILLEELNASGRCTLPIDESNTIHLKVIEQRPDPPVAQEYDVPVFTKDKEDFFNSQWDLTTQQILPYIDGFRHIQKISAEADVELNLVRIAIQNLLYYGVVTLVSILQYSNVYCPTPKVQDLVDDKSLQEACLSYVTKQGHKRASLRDVFQLYCSLSPGTTVRDLIGRHPQQLQHVDERKLIQFGLMKNLIRRLQKYPVRVTREEQSHPARLYTGCHSYDEICCKTGMSYHELDERLENDPNIIICWK

Assays:
[1] = molecular target: HA-tagged Depdc5(R1407D) (human) (UniProt O75140); assay: co-IP; HA-tagged Depdc5 stably expressed in Depdc5-knockout HEK-293T; cells lysed in Triton lysis buffer (1% Triton); immunoprecipitate blotted for Nprl2 and Nprl3
[2] = molecular target: HA-tagged wild-type Depdc5 (human) (UniProt O75140); assay: as above

| Binder | binding [1] | binding [2] |
| --- | --- | --- |
| B1 | binds | binds |
| B2 | binds | binds |
